Experimental data: PubChem BioAssay AID602196 (INSERM, 2012)
Here is a random part of about 23,000 reagents tested. 455 of all reagents (2%) count as active. 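Active includes both protection and sensitisation; some change values fall well beyond the stated -50 to +50 range.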 The numbers tell different reagents against one gene apart. Not all columns of the deposit are shown. Not stated in the record: the amount of reagent.

Test: 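Knock-downs that protect lung cancer cells from cisplatin or sensitise them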
System: human A549 lung cancer cells
Reagent: siRNA pair against human genes
Time to read-out: 48 h transfection before cisplatin; time from cisplatin to read-out not stated
Conditions: cisplatin at a dose killing half of control-siRNA cells; exact dose and duration not given
Read-out: 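Shift in cisplatin death relative to control siRNA, from -50 (all cells die) to +50 (no cells die); siRNAs harmful on their own scored 0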
Scale: two-siRNA summed score (-2 to +2): higher = both siRNAs protect from cisplatin killing; -2 means both sensitise
Active means: 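Each siRNA scores 0 if harmful alone by LDH or WST-1, otherwise +1 if it reduces and -1 if it increases cisplatin killing; a gene is active when both siRNAs agree (sum +2 or -2)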
Calls: active = both siRNAs shift cisplatin killing the same way; inactive = no consistent shift, or siRNA harmful alone

Knock-down of LOC139516 came out at: two-siRNA summed score (-2 to +2) = 1; inactive.
Knock-down of TCIRG1 resulted in: two-siRNA summed score (-2 to +2) = 1; inactive.
MPZL2 scored two-siRNA summed score (-2 to +2) = 0; inactive.
TOE1 showed two-siRNA summed score (-2 to +2) = 1; inactive.
Against LOC440183, the entry reads two-siRNA summed score (-2 to +2) = 1; inactive.
With knock-down of PCP2 the results were two-siRNA summed score (-2 to +2) = 0; inactive.
Against RFPL2 the deposit lists two-siRNA summed score (-2 to +2) = -2; active.
With knock-down of AVP, the record shows two-siRNA summed score (-2 to +2) = -1; inactive.
LOC151507 gave two-siRNA summed score (-2 to +2) = 0; inactive.
CAMK2D showed two-siRNA summed score (-2 to +2) = 1; inactive.
With knock-down of LOC441449, the screen gave two-siRNA summed score (-2 to +2) = 0; inactive.
HOXD12 gave two-siRNA summed score (-2 to +2) = 0; inactive.
After knock-down of SIGLEC15 the results were two-siRNA summed score (-2 to +2) = -1; inactive.
For CFAP251, the values are two-siRNA summed score (-2 to +2) = 0; inactive.
BTBD8 #1 gave two-siRNA summed score (-2 to +2) = 0; inactive.
With knock-down of BTBD8 #2 the results were two-siRNA summed score (-2 to +2) = 0; inactive.
With knock-down of SMARCC2, the record shows two-siRNA summed score (-2 to +2) = 1; inactive.
After knock-down of ALYREF, the screen gave two-siRNA summed score (-2 to +2) = 0; inactive.
After knock-down of LOC389257, the screen gave two-siRNA summed score (-2 to +2) = 0; inactive.
After knock-down of TAS1R2, the screen gave two-siRNA summed score (-2 to +2) = 1; inactive.
With knock-down of CISH, the record shows two-siRNA summed score (-2 to +2) = 0; inactive.
Knock-down of DRAM1 resulted in: two-siRNA summed score (-2 to +2) = -1; inactive.
For KMT5A the deposit lists two-siRNA summed score (-2 to +2) = 1; inactive.
LYG2 showed two-siRNA summed score (-2 to +2) = 0; inactive.
Against GSPT2, the values are two-siRNA summed score (-2 to +2) = 0; inactive.
Depletion of FAM177B came out at: two-siRNA summed score (-2 to +2) = -1; inactive.
ADAMTS7 showed two-siRNA summed score (-2 to +2) = 0; inactive.
TMEM248 scored two-siRNA summed score (-2 to +2) = 0; inactive.
After knock-down of FGL1 the results were two-siRNA summed score (-2 to +2) = 0; inactive.
PTPN13 gave two-siRNA summed score (-2 to +2) = 0; inactive.
JMJD4 showed two-siRNA summed score (-2 to +2) = 0; inactive.
After knock-down of DKK4 the results were two-siRNA summed score (-2 to +2) = -1; inactive.
Silencing of MAGEA12 resulted in: two-siRNA summed score (-2 to +2) = 1; inactive.
Depletion of MCUB gave: two-siRNA summed score (-2 to +2) = 0; inactive.
C20orf203 scored two-siRNA summed score (-2 to +2) = 0; inactive.
Depletion of AWAT2 gave: two-siRNA summed score (-2 to +2) = 0; inactive.
With knock-down of MPST, the record shows two-siRNA summed score (-2 to +2) = 0; inactive.
Knock-down of UBL4A gave: two-siRNA summed score (-2 to +2) = -1; inactive.
Depletion of NPBWR2 gave: two-siRNA summed score (-2 to +2) = 1; inactive.
DKFZP434B061 scored two-siRNA summed score (-2 to +2) = 0; inactive.

3 consecutive records already listed:
MPST → two-siRNA summed score (-2 to +2) = 0; activity call = inactive
UBL4A → two-siRNA summed score (-2 to +2) = -1; activity call = inactive
NPBWR2 → two-siRNA summed score (-2 to +2) = 1; activity call = inactive
